This series relates to P-gp (MDR1). Put plainly: in vitro. Particulars: dog, MDCK-MDR1. As for the experimental part:
Specifically, MDCKII-MDR1 cells (1 × 10^5 cell/cm^2) were seeded on polyester 12-well Transwell inserts (pore size: […], diameter: 12 mm, apical volume: 0.5 mL, basolateral: volume 1.5 mL) and cultured for 5–7 days to reach full differentiation as per TEER readings > 250 Ω·cm. […] After an incubation time of 2 h, samples were removed from the apical and basolateral side of the monolayer and were stored at −80 °C until further analysis.
The Papp was calculated according to the following equation (units of cm/s):(1) Papp=Va/area×time×Drugacceptor/Druginitial where “Va” is the volume in the acceptor well, “time” is the total transport time, “area” is the surface area of the membrane, “[Drug]initial” is the initial drug concentration in the AP or BL chamber, and “[Drug]acceptor” is the concentration of the drug in the acceptor chamber.
The ER was calculated using the following equation:ER = Papp, BL-AP/Papp, AP-BL(2) where “Papp, BL-AP” is the apparent permeability of basal-to-apical transport, and “Papp, AP-BL” is the apparent permeability of apical-to-basal transport.

On to `CN1C(=O)CN=C(c2ccccc2)c2cc(Cl)ccc21` [Diazepam, reference compound], for which the Papp A→B at 2 h, 75 μM is 13.6 ± 1.7 ×10⁻⁶ cm/s; the apparent permeability from basolateral to apical (Papp B→A) at 2 h, 75 μM came out at 11.9 ± 1.5 ×10⁻⁶ cm/s; the efflux ratio at 2 h, 75 μM was 0.89.

Source of the values: paper PMC10610214 (Pharmaceuticals, 2023).
